{
  "source": "patent EP0097633B1",
  "about": "“Determination of the sensitivity of virus to antiviral agents” (Wahren, Britta, priority 1982, dated 1984)",
  "key": {"[1]": {"test_system": "HSV-1", "test": "VSA on HL-cells infected with HSV-1, virus antigen measured in supernatant and in cells disrupted with distilled water (Example 2)", "format": "cell-based", "conditions": "read from Fig. 2", "method": "(§1) Sterile plastic plates comprising 24 wells, each having a culture surface of 2.5 cm^2 and containing about 5 x 10^5 HL-cells/well were inoculated with 0.1 ml of virus dilutions as above. Such of the above virus dilutions only containing a small amount of virus are first cultured for 3 days in HL-cells, on which virus replicates, after which the virus isolate from one cell passage is taken out, is diluted 1:30 and 0.1 ml of the dilutions is added to the plates as indicated above. The cells are then incubated at a temperature of 32-37°C, with addition of different antiviral agents, and without any addition of antiviral agent to obtain reference values. […]\n(§2) The amount of virus antigen formed is thereafter determined as follows. […] The optimal antibody concentration has been determined by antibody titration with the respective antigen and control antigen.\n0.1 ml of the cell material obtained above or a known virus antigen is filled into plates treated with antibody and is incubated for 4 hours at +4°C. […] The absorbance (A) is thereafter read at 405 nm with Titertek Multiskan® (Flow Laboratories, Irvine, Scotland). Absorbance values then obtained at the concentrations C1―C6 of the antiviral agents from table 1 and at the concentration Co = O are indicated in the following table 2. […]"}, "[2]": {"test_system": "HSV", "test": "Virus sensitivity assay (VSA): HSV patient material replicated in HL-cells with antiviral agent, cell disruption, virus antigen by ELISA sandwich technique (Example 1)", "format": "cell-based, herpes simplex virus (HSV)", "conditions": "read from Fig. 1", "method": "A material from a patient containing living HSV is mixed with a small amount of Eagle's tissue culture medium containing 2% of calf serum, 100 IE penicillin/ml and 100 […] of streptomycin/ml, after which the virus mixture is diluted 1:30 in this medium.\nas §1, with “above.” for “above. The cells are then incubated at a temperature of 32-37°C, with addition of different antiviral agents, and without any addition of antiviral agent to obtain reference values.”\nAfter a culture of 1 to 3 days the effect of the antiviral agents is then evaluated by measurement with ELISA sandwich technique as described below. […]\nas §2\n0.1 ml of the cell material obtained above or a known virus antigen is filled into plates treated with antibody and is incubated for 4 hours at +4°C. […] The absorbance (A) is thereafter read at 405 nm with Titertek Multiskan® (Flow Laboratories, Irvine, Scotland). […]"}},
  "note": "At least one compound was matched to its structure with a doubt left.",
  "data": [
    {"smiles": "O=c1[nH]c(=O)n([C@H]2C[C@H](O)[C@@H](CO)O2)cc1I", "note": "[IDU, iododeoxyuridine]", "values": [
      {"measurement": "50% of inhibition of antigen formation in the cells", "setting": "[1]", "result": "in clinically relevant concentrations"},
      {"measurement": "sensitivity of the investigated HSV to the antiviral agent", "setting": "[2]", "result": "high sensitivity"}
    ]}
  ]
}
